# Experimental data from doi:10.1101/2022.10.04.510906 (bioRxiv, 2022).
# These are yes or no findings as the source states them, for the method shown. A result given as binding can be weak or reduced; the word gives no strength.
# Target: T1, V/A-ATPase E subunit (Thermus thermophilus) (UniProt P74901)
# T1 sequence: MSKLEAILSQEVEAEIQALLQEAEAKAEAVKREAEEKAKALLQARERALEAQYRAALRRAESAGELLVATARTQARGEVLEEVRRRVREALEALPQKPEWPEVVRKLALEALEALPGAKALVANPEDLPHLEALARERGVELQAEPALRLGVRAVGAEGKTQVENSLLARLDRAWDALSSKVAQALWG
# Experiment: cryo-EM structure
substance,measurement,value
V/A-ATPase G subunit (Thermus thermophilus),binding,binds
